Laboratory results as given in patent US9951335B2, “Compositions and methods for treating otitis media and other conditions with inhibitors of CYLD” (Georgia State University Research Foundation, Inc., priority 2012, dated 2018).
At least one structure is not confirmed: it was looked up by name or label, or the drawing left a doubt.

Columns and labels:
Smad3 = Smad3 protein expression in cells incubated with Akt or PI3K inhibitor (immunoblotting); type: cell-based, mouse; settings: 20 μM; MEF cells from Cyld+/+ and Cyld−/− mice (FIG. 5d), cells (FIG. 5e)
Method: FIG. 5 illustrates that CYLD decreases Smad3 stability by inhibiting Akt. (a) MEF cells from Cyld+/+ and Cyld−/− mice were transfected with siCon or siAkt1/2 and analysed by immunoblotting with the indicated antibodies. (b) SBE-promoter activity was determined in siCYLD-transfected A549 cells with or without siAkt co-transfection and stimulated with TGF-β. (c) SBE-promoter activity was determined in MEFs from Cyld+/+ and Cyld−/− mice pretreated with Akt inhibitor and stimulated with TGF-β. (d) MEF cells from Cyld+/+ and Cyld−/− mice were incubated with Akt inhibitor (20 μM), and cell lysates were analysed by immunoblotting with the indicated antibodies. (e) Cells were incubated with Akt inhibitor (20 μM) or LY294002 (20 μM), and cell lysates were analysed by immunoblotting with the indicated antibodies. (f) Lysates from cells transfected with HA-CYLD and Flag-Akt were immunoprecipitated with anti-CYLD antibody (upper panel) or anti-Akt antibody (lower panel), and interacting proteins were analysed by immunoblotting. […]
Western blot, immunoprecipitation and ubiquitination experiments were performed as follows. […] Immunoprecipitates were then suspended in a sample buffer, separated on 8% SDS-PAGE, transferred to polyvinylidine difluoride membrane, and detected by immunoblot analysis, as described above. […]

CYLD [1] = assay: NTHi-induced up-regulation of CYLD in epithelial cells (Q-PCR, Western blot); type: cell-based, human; settings: HMEEC cells in vitro; 1 μM
Description: (§1) Phosphodiesterases (PDEs) have been recognized as therapeutic targets. […] For this reason, we initially sought to determine if PDEs act as key negative regulator for CYLD.

CYLD [2] = assay: CYLD up-regulation in the middle ear of mouse OM model (Q-PCR, IF staining); settings: middle ear of mouse in vivo
Description: as §1
Ototopical administration works effectively when the eardrum is perforated either pathologically or surgically by tympanostomy tube insertion. Thus, we first determined if ototopical administration of rolipram up-regulates CYLD and suppresses inflammation in the middle ear of mice post NTHi inoculation.

[3] = system: NTHi-induced inflammation; assay: NTHi-induced inflammation in epithelial cells (NF-κB activation, IL-1β, IL-8, TNF-α; Q-PCR, ELISA); type: cell-based, human
Description: We next determined if PDE4 inhibition suppresses NTHi-induced inflammation. […] Despite showing that inhibiting PDE4 enhanced up-regulation of CYLD and suppressed NTHi-induced inflammation, it was still unclear whether inhibiting PDE4 suppressed inflammation by up-regulating CYLD or by inhibiting a positive regulator of inflammation (e.g., IKKβ).

[4] = system: NTHi-induced inflammation; assay: NTHi-induced middle ear inflammation in mouse OM model (cytokines, otoscopy, histopathology); settings: middle ear of mouse in vivo

Structure (SMILES)	Smad3 protein expression (Smad3)	up-regulation of CYLD by NTHi (CYLD [1])	up-regulation of CYLD by NTHi (CYLD [2])	NTHi-induced inflammation in CYLD-deficient cells ([3]; CYLD-deficient cells)	NTHi-induced inflammation ([3]; HMEEC cells in vitro, 1 μM)	NTHi-induced inflammation [4]
O=c1cc(N2CCOCC2)oc2c(-c3ccccc3)cccc12 [LY294002]	did not reduce					
Oc1c2ccccc2c2c3c(cccc13)N=N2 [SP600125]		enhanced	enhanced	no longer inhibited	suppressed	suppressed
